One molecule from patent US20180002415A1 can be followed below.

Amino acid sequences for entries named in this document (tags omitted). A change or cut given only in a name is not applied to a line headed by its entry.
UniProt P01031: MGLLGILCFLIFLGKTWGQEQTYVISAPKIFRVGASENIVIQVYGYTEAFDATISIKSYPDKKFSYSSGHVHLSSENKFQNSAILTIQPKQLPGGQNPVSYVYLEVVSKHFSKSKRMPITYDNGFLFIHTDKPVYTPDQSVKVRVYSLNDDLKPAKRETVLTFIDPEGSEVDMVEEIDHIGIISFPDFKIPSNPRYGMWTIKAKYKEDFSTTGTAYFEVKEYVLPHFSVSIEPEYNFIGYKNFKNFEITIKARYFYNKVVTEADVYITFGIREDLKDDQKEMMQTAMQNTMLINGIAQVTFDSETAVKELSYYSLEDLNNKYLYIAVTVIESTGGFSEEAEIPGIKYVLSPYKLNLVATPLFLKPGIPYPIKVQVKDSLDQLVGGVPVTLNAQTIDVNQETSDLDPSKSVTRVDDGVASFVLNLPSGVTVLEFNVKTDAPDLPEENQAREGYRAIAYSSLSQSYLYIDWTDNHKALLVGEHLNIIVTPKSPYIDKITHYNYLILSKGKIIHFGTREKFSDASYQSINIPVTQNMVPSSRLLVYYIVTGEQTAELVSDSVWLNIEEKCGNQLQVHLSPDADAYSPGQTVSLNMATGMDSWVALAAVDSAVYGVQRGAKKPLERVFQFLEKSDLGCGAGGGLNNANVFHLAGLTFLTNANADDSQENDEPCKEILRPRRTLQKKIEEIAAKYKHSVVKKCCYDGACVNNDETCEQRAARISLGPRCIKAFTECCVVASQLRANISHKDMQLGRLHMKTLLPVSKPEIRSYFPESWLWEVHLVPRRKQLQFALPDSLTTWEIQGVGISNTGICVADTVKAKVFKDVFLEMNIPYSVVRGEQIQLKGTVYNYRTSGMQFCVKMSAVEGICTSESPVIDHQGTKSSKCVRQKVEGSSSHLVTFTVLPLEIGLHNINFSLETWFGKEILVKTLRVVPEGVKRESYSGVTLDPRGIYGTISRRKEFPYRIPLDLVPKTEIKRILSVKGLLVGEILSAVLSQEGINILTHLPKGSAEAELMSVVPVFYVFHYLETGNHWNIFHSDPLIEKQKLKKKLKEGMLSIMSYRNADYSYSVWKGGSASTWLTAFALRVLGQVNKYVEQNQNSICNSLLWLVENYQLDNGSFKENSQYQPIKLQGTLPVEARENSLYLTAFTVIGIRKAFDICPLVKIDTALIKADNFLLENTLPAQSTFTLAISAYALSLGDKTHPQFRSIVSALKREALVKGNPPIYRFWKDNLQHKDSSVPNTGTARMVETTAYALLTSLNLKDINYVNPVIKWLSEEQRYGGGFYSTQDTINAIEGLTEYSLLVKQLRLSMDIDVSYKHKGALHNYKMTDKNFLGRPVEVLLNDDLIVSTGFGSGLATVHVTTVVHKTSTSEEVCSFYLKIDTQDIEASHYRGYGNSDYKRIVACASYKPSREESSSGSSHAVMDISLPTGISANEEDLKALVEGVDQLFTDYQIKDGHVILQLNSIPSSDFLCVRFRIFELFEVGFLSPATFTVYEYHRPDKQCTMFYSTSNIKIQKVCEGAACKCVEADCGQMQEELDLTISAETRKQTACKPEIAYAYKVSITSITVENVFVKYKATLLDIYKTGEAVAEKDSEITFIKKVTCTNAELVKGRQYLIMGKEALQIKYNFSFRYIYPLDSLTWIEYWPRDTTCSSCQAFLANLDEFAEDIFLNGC

For the assay, the target named is recombinant human C5 (human) (UniProt P01031). The assay can be described thus: SPR (BIACORE T200, 37 C): antibody captured by ProA/G, recombinant human C5 injected, running buffer ACES pH7.4 or pH5.8; C5 concentration of the curves not printed on the sheet. (In general: Surface plasmon resonance follows binding to a sensor surface in real time, without labels.)

No constants are given. Whether binding was seen depends on the method and setting. Some binding calls cover weakened binding; strength is not graded here.

B1: CFA0341 (antibody, V domains shown)
VH: QSVEESGGRLVTPGTPLTLTCTVSGIDLSSYTMGWVRQAPGKGLECIGYIHSFGSTYYASWAKGRFTISKTSTTVDLEITSPTTEDTATYFCARDVGGSSGWDLWGQGTLVTVSS
VL: DVVMTQTPSSVSAAVGGTVTIKCQASENIYSNLAWYQQKPGQPPKRLIYDASDLASGVPSRFSGSGYGTQFTLTISGVQCEDAATYYCQANYDSTSSSFGNVFGGGTEVVVK
Consider B1, for which the binding result is listed as “binds”.
